{
  "sequences": {"note": "Amino acid sequences for entries named in this document (tags omitted). Residues count along the entry.", "UniProt Q15116, residues 25-167": "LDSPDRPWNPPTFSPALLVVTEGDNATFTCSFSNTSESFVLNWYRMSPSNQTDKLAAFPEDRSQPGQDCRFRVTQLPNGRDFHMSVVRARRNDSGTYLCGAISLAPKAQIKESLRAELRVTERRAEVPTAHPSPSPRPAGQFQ"},
  "source": "patent CN115466329A",
  "binders": {"B1": {"name": "抗PD-1鼠单抗PD-1-76-C2 (antibody, V domains shown)", "VH": "QIQLVQSGPELKKPGETVKISCKASGYTFTNYGMNWVKQAPGKGLKWMGWINTHTGEPTYADDFKGRFAFSLETSASTAYLQIKNLKNEDVATYFCTKEGEGIGFAYWGQGTLVTVSA", "VL": "DVLMTQTPLSLPVSLGDQASISCRSSQSIVYSNGKTYLEWYLQKPGQSPKLLIYKVSNRFSGVPDRFSGSGSGTDFTLKISRVEAEDLGVYYCFQGSHVPNTFGGGTKLEIKR"}},
  "target": "PD-1 (ACRO) coated on the ELISA plate (UniProt Q15116)",
  "test": "ELISA, PD-1 coated at 1μg/ml, antibody at 10μg/ml",
  "note": "These are yes or no findings as the source states them, for the method shown. Some binding calls cover weakened binding; strength is not graded here.",
  "data": [
    {"binder": "B1", "values": [
      {"measurement": "binding", "value": "binds"}
    ]}
  ]
}
